{
  "source": "the supplement of paper PMC4635364",
  "key": {"ReNCell VM [1]": {"test_system": "ReNCell VM", "experiment": "neuronal differentiation score (DCX+ cell fraction vs untreated, manual image score) (score (-3 to 3)); higher = more neuronal differentiation", "conditions": "2 uM, 2 weeks"}, "ReNCell VM [2]": {"test_system": "ReNCell VM", "experiment": "dopaminergic neuron differentiation score (TH+ cell fraction vs untreated, manual image score) (score (0 to 3)); higher = more TH+ dopaminergic neuron differentiation", "conditions": "2 uM, 4 weeks, BDNF 10 ng/ml + GDNF 10 ng/ml"}},
  "note": "Structures can show the parent of a compound that is named as a salt. This is one part of the list. Single values are uncertain here, since repeats match poorly.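 ReNCell VM, a human fetal ventral-midbrain neural progenitor line, was differentiated without mitogens. Blinded raters scored images stained for doublecortin (early neurons) or tyrosine hydroxylase (dopaminergic neurons) against untreated wells (0 = no change). Scores were averaged across repeats and both raters, and compounds averaging 2 or more were selected as hits for retesting.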",
  "data": [
    {"smiles": "CSc1cc2c(cc1C(F)(F)F)N(C(=O)Nc1cccnc1)CC2", "values": [
      {"measurement": "neuronal differentiation score", "setting": "ReNCell VM [1]; library: Tocriscreen", "result": "inactive: 0"},
      {"measurement": "dopaminergic neuron differentiation score", "setting": "ReNCell VM [2]; library: Tocriscreen", "result": "inactive: 0"}
    ]},
    {"smiles": "CCN1CCCC1CNC(=O)c1cc(S(N)(=O)=O)ccc1OC", "note": "(stereo unspecified) [Sulpiride]", "values": [
      {"measurement": "neuronal differentiation score", "setting": "ReNCell VM [1]; library: Prestwick", "result": "inactive: 0"},
      {"measurement": "dopaminergic neuron differentiation score", "setting": "ReNCell VM [2]; library: Prestwick", "result": "inactive: 0"}
    ]},
    {"smiles": "O=C(Nc1nc2ccccc2n1CCN1CCOCC1)c1cccc([N+](=O)[O-])c1", "note": "[IRAK-1/4 Inhibitor I]", "values": [
      {"measurement": "neuronal differentiation score", "setting": "ReNCell VM [1]; library: LOPAC", "result": "inactive: 0"},
      {"measurement": "dopaminergic neuron differentiation score", "setting": "ReNCell VM [2]; library: LOPAC", "result": "inactive: 0"}
    ]},
    {"smiles": "NCCNCCNCCNCCN", "note": "[Tetraethylenepentamine pentahydrochloride]", "values": [
      {"measurement": "neuronal differentiation score", "setting": "ReNCell VM [1]; library: Prestwick", "result": "inactive: 0"},
      {"measurement": "dopaminergic neuron differentiation score", "setting": "ReNCell VM [2]; library: Prestwick", "result": "inactive: 0"}
    ]},
    {"smiles": "CCOc1ccc(Cc2nccc3cc(OCC)c(OCC)cc23)cc1OCC", "values": [
      {"measurement": "neuronal differentiation score", "setting": "ReNCell VM [1]; library: Spectrum", "result": "inactive: 0"},
      {"measurement": "dopaminergic neuron differentiation score", "setting": "ReNCell VM [2]; library: Spectrum", "result": "inactive: 0"}
    ]},
    {"smiles": "CCN(CC)CCOC(=O)C(c1ccccc1)C1CCCCC1", "note": "(stereo unspecified)", "values": [
      {"measurement": "neuronal differentiation score", "setting": "ReNCell VM [1]; library: Spectrum", "result": "inactive: 0"},
      {"measurement": "dopaminergic neuron differentiation score", "setting": "ReNCell VM [2]; library: Spectrum", "result": "inactive: 0"}
    ]},
    {"smiles": "C[C@H]1[C@H](NC(=O)/C(=N\\OC(C)(C)C(=O)O)c2csc(N)n2)C(=O)N1S(=O)(=O)O", "note": "[Aztreonam]", "values": [
      {"measurement": "neuronal differentiation score", "setting": "ReNCell VM [1]; library: Prestwick", "result": "inactive: 0"},
      {"measurement": "dopaminergic neuron differentiation score", "setting": "ReNCell VM [2]; library: Prestwick", "result": "inactive: 0"}
    ]},
    {"smiles": "CCCc1ncc(C[n+]2ccccc2C)c(N)n1", "values": [
      {"measurement": "neuronal differentiation score", "setting": "ReNCell VM [1]; library: Spectrum", "result": "inactive: 0"},
      {"measurement": "dopaminergic neuron differentiation score", "setting": "ReNCell VM [2]; library: Spectrum", "result": "inactive: 0"}
    ]},
    {"smiles": "c1ccc2c(CC3=NCCN3)cccc2c1", "values": [
      {"measurement": "neuronal differentiation score", "setting": "ReNCell VM [1]; library: Spectrum", "result": "inactive: 0"},
      {"measurement": "dopaminergic neuron differentiation score", "setting": "ReNCell VM [2]; library: Spectrum", "result": "inactive: 0"}
    ]},
    {"smiles": "O=C(O[C@@H]1C[C@@H]2C[C@H]3C[C@H](C1)N2CC3=O)c1c[nH]c2ccccc12", "note": "[Dolasetron mesilate]", "values": [
      {"measurement": "neuronal differentiation score", "setting": "ReNCell VM [1]; library: Prestwick", "result": "inactive: 0"},
      {"measurement": "dopaminergic neuron differentiation score", "setting": "ReNCell VM [2]; library: Prestwick", "result": "inactive: 0"}
    ]},
    {"smiles": "CCOC(=O)OC(C)OC1=C(C(=O)Nc2ccccn2)N(C)S(=O)(=O)c2ccccc21", "note": "(stereo unspecified)", "values": [
      {"measurement": "neuronal differentiation score", "setting": "ReNCell VM [1]; library: Spectrum", "result": "inactive: 0"},
      {"measurement": "dopaminergic neuron differentiation score", "setting": "ReNCell VM [2]; library: Spectrum", "result": "inactive: 0"}
    ]},
    {"smiles": "CCCCCCNC(=O)n1cc(F)c(=O)[nH]c1=O", "values": [
      {"measurement": "neuronal differentiation score", "setting": "ReNCell VM [1]; library: Spectrum", "result": "inactive: 0"},
      {"measurement": "dopaminergic neuron differentiation score", "setting": "ReNCell VM [2]; library: Spectrum", "result": "inactive: 0"}
    ]},
    {"smiles": "C#C[C@]1(O)CC[C@H]2[C@@H]3CCC4=CC(=O)CC[C@@H]4[C@H]3CC[C@@]21CC", "values": [
      {"measurement": "neuronal differentiation score", "setting": "ReNCell VM [1]; library: Spectrum", "result": "inactive: 0"},
      {"measurement": "dopaminergic neuron differentiation score", "setting": "ReNCell VM [2]; library: Spectrum", "result": "inactive: 0"}
    ]}
  ]
}
